Test results: the supplement of paper PMC8728848
The list shows a part of the results.

Experiments:
Assay in all cases: glycan array binding signal (z-score within array); higher = stronger binding
Conditions in all cases: glycan notation: IUPAC condensed, linker removed
[1] = biological target: Neu5Ac(a2-3)Gal(b1-4)GlcNAc(b1-3)[Neu5Ac(a2-3)Gal(b1-4)GlcNAc(b1-6)]GalNAc
How it was run: (§1)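 Negative Z-scores can be read as non-binding. The Z-score is calculated within each array and then averaged across arrays of one protein sequence at different concentrations or buffers and across linkers. Arrays, 3228 in all, were curated from the Consortium for Functional Glycomics database and kept only where the protein sequence was available.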

[2] = biological target: Neu5Ac(a2-3)Gal(b1-4)GlcNAc(b1-6)GalNAc
How it was run: as §1

[3] = biological target: Neu5Ac(a2-3)Gal(b1-4)GlcNAc(b1-6)[Gal(b1-3)]GalNAc
How it was run: as §1

[4] = biological target: Neu5Ac(a2-3)Gal(b1-4)GlcNAc(b1-6)[Neu5Ac(a2-3)Gal(b1-3)]GalNAc
How it was run: as §1

[5] = biological target: Neu5Ac(a2-3)Gal(b1-4)GlcNAc6S
How it was run: as §1

[6] = biological target: Neu5Ac(a2-3)Gal(b1-4)[Fuc(a1-3)]GlcNAc
How it was run: as §1

[7] = biological target: Neu5Ac(a2-3)Gal(b1-4)[Fuc(a1-3)]GlcNAc(b1-2)Man
How it was run: as §1

[8] = biological target: Neu5Ac(a2-3)Gal(b1-4)[Fuc(a1-3)]GlcNAc(b1-3)Gal
How it was run: as §1

[9] = biological target: Neu5Ac(a2-3)Gal(b1-4)[Fuc(a1-3)]GlcNAc(b1-3)Gal(b1-4)GlcNAc
How it was run: as §1

[10] = biological target: Neu5Ac(a2-3)Gal(b1-4)[Fuc(a1-3)]GlcNAc(b1-3)Gal(b1-4)[Fuc(a1-3)]GlcNAc(b1-3)Gal(b1-4)[Fuc(a1-3)]GlcNAc
How it was run: as §1

[11] = biological target: Neu5Ac(a2-3)Gal(b1-4)[Fuc(a1-3)]GlcNAc(b1-3)GalNAc
How it was run: as §1

[12] = biological target: Neu5Ac(a2-3)Gal(b1-4)[Fuc(a1-3)]GlcNAc(b1-6)[Gal(b1-3)]GalNAc
How it was run: as §1

[13] = biological target: Neu5Ac(a2-3)Gal(b1-4)[Fuc(a1-3)]GlcNAc(b1-6)[Neu5Ac(a2-3)Gal(b1-3)]GalNAc
How it was run: as §1

[14] = biological target: Neu5Ac(a2-3)Gal(b1-4)[Fuc(a1-3)]GlcNAc6S
How it was run: as §1

[15] = biological target: Neu5Ac(a2-3)Gal6S(b1-4)GlcNAc
How it was run: as §1

[16] = biological target: Neu5Ac(a2-3)Gal6S(b1-4)[Fuc(a1-3)]GlcNAc
How it was run: as §1

Neu5Ac(a2-3)GalNAc = biological target: Neu5Ac(a2-3)GalNAc
How it was run: as §1

[17] = biological target: Neu5Ac(a2-3)GalNAc(b1-4)GlcNAc
How it was run: as §1

[18] = biological target: Neu5Ac(a2-3)[GalNAc(b1-4)]Gal(b1-4)Glc
How it was run: as §1

[19] = biological target: Neu5Ac(a2-3)[GalNAc(b1-4)]Gal(b1-4)GlcNAc
How it was run: as §1

[20] = biological target: Neu5Ac(a2-3)[GalNAc(b1-4)]Gal(b1-4)GlcNAc(b1-3)GalNAc
How it was run: as §1

[21] = biological target: Neu5Ac(a2-3)[Neu5Ac(a2-6)]GalNAc
How it was run: as §1

Neu5Ac(a2-6)Gal = biological target: Neu5Ac(a2-6)Gal
How it was run: as §1

[22] = biological target: Neu5Ac(a2-6)Gal(b1-3)GlcNAc(b1-3)[Gal(b1-4)GlcNAc(b1-6)]Gal(b1-4)Glc
How it was run: as §1

Neu5Ac(a2-6)Gal(b1-4)Glc = biological target: Neu5Ac(a2-6)Gal(b1-4)Glc
How it was run: as §1

[23] = biological target: Neu5Ac(a2-6)Gal(b1-4)GlcNAc
How it was run: as §1

[24] = biological target: Neu5Ac(a2-6)Gal(b1-4)GlcNAc(b1-2)Man
How it was run: as §1

[25] = biological target: Neu5Ac(a2-6)Gal(b1-4)GlcNAc(b1-2)Man(a1-3)Man(b1-4)GlcNAc(b1-4)GlcNAc
How it was run: as §1

[26] = biological target: Neu5Ac(a2-6)Gal(b1-4)GlcNAc(b1-2)Man(a1-3)[Gal(b1-4)GlcNAc(b1-2)Man(a1-6)]Man(b1-4)GlcNAc(b1-4)GlcNAc
How it was run: as §1

[27] = biological target: Neu5Ac(a2-6)Gal(b1-4)GlcNAc(b1-2)Man(a1-3)[GlcNAc(b1-2)Man(a1-6)]Man(b1-4)GlcNAc(b1-4)GlcNAc
How it was run: as §1

[28] = biological target: Neu5Ac(a2-6)Gal(b1-4)GlcNAc(b1-2)Man(a1-3)[GlcNAc(b1-4)][Neu5Ac(a2-6)Gal(b1-4)GlcNAc(b1-2)Man(a1-6)]Man(b1-4)GlcNAc(b1-4)GlcNAc
How it was run: as §1

[29] = biological target: Neu5Ac(a2-6)Gal(b1-4)GlcNAc(b1-2)Man(a1-3)[Man(a1-6)]Man(b1-4)GlcNAc(b1-4)GlcNAc
How it was run: as §1

[30] = biological target: Neu5Ac(a2-6)Gal(b1-4)GlcNAc(b1-2)Man(a1-3)[Neu5Ac(a2-3)Gal(b1-4)GlcNAc(b1-2)Man(a1-6)]Man(b1-4)GlcNAc(b1-4)GlcNAc
How it was run: as §1

[31] = biological target: Neu5Ac(a2-6)Gal(b1-4)GlcNAc(b1-2)Man(a1-3)[Neu5Ac(a2-6)Gal(b1-4)GlcNAc(b1-2)Man(a1-6)]Man(b1-4)GlcNAc(b1-4)GlcNAc
How it was run: as §1

[32] = biological target: Neu5Ac(a2-6)Gal(b1-4)GlcNAc(b1-2)Man(a1-3)[Neu5Ac(a2-6)Gal(b1-4)GlcNAc(b1-2)Man(a1-6)]Man(b1-4)GlcNAc(b1-4)[Fuc(a1-6)]GlcNAc
How it was run: as §1

[33] = biological target: Neu5Ac(a2-6)Gal(b1-4)GlcNAc(b1-2)Man(a1-6)Man(b1-4)GlcNAc(b1-4)GlcNAc
How it was run: as §1

[34] = biological target: Neu5Ac(a2-6)Gal(b1-4)GlcNAc(b1-2)Man(a1-6)[Gal(b1-4)GlcNAc(b1-2)Man(a1-3)]Man(b1-4)GlcNAc(b1-4)GlcNAc
How it was run: as §1

[35] = biological target: Neu5Ac(a2-6)Gal(b1-4)GlcNAc(b1-2)Man(a1-6)[GlcNAc(b1-2)Man(a1-3)]Man(b1-4)GlcNAc(b1-4)GlcNAc
How it was run: as §1

[36] = biological target: Neu5Ac(a2-6)Gal(b1-4)GlcNAc(b1-2)Man(a1-6)[Man(a1-3)]Man(b1-4)GlcNAc(b1-4)GlcNAc
How it was run: as §1

[37] = biological target: Neu5Ac(a2-6)Gal(b1-4)GlcNAc(b1-2)[Neu5Ac(a2-6)Gal(b1-4)GlcNAc(b1-4)]Man(a1-3)[GlcNAc(b1-4)][Neu5Ac(a2-6)Gal(b1-4)GlcNAc(b1-2)[Neu5Ac(a2-6)Gal(b1-4)GlcNAc(b1-6)]Man(a1-6)]Man(b1-4)GlcNAc(b1-4)GlcNAc
How it was run: as §1

[38] = biological target: Neu5Ac(a2-6)Gal(b1-4)GlcNAc(b1-2)[Neu5Ac(a2-6)Gal(b1-4)GlcNAc(b1-4)]Man(a1-3)[GlcNAc(b1-4)][Neu5Ac(a2-6)Gal(b1-4)GlcNAc(b1-4)Man(a1-6)]Man(b1-4)GlcNAc(b1-4)GlcNAc
How it was run: as §1

[39] = biological target: Neu5Ac(a2-6)Gal(b1-4)GlcNAc(b1-2)[Neu5Ac(a2-6)Gal(b1-4)GlcNAc(b1-6)]Man(a1-6)[Neu5Ac(a2-6)Gal(b1-4)GlcNAc(b1-2)Man(a1-3)][GlcNAc(b1-4)]Man(b1-4)GlcNAc(b1-4)GlcNAc
How it was run: as §1

[40] = biological target: Neu5Ac(a2-6)Gal(b1-4)GlcNAc(b1-3)Gal(b1-3)GlcNAc
How it was run: as §1

[41] = biological target: Neu5Ac(a2-6)Gal(b1-4)GlcNAc(b1-3)Gal(b1-4)GlcNAc
How it was run: as §1

[42] = biological target: Neu5Ac(a2-6)Gal(b1-4)GlcNAc(b1-3)Gal(b1-4)GlcNAc(b1-2)Man(a1-3)[Neu5Ac(a2-6)Gal(b1-4)GlcNAc(b1-3)Gal(b1-4)GlcNAc(b1-2)Man(a1-6)]GalNAc
How it was run: as §1

B1: SP15308B-bot-339-22-339 (Bacteroides ovatus) (protein)
chain: NEWEDEQYEQYVSFKAPIASGSDGVTTIYVRYKDNGKVTYQLPIIVSGSTVNSQDRDIHIAVDKDTLKTLNIERFSLYRPELWYTEMEEDKYEFPETVHIPAGSCVELLNIDFNLQDIDMLEKWVLPLTIVDDGSYAYQSHPRKNYAKALLKVVPFNNYSGSYTASSMKVYTYINGKPDTNARTTDKRTGYVVDNNSIFFYAGLINEDMDKDMRKKYKINVHFKEDGTLDMKQDDPSNEMEFELIGTPTYSSTSVMDATRPYLERRYVQIMFEYDFQDFTYGGSGTEVIPIKYRVAGSMTLLRNINTQIPDEDQQIEW
[1]
  glycan array binding signal (z-score): 0.108
[2]
  glycan array binding signal (z-score): -0.334
[3]
  glycan array binding signal (z-score): -0.61
[4]
  glycan array binding signal (z-score): -0.319
[5]
  glycan array binding signal (z-score): -0.466
[6]
  glycan array binding signal (z-score): -0.494
[7]
  glycan array binding signal (z-score): 0.331
[8]
  glycan array binding signal (z-score): -0.207
[9]
  glycan array binding signal (z-score): 0.57
[10]
  glycan array binding signal (z-score): -0.223
[11]
  glycan array binding signal (z-score): 2.38
[12]
  glycan array binding signal (z-score): 0.253
[13]
  glycan array binding signal (z-score): 0.467
[14]
  glycan array binding signal (z-score): -0.53
[15]
  glycan array binding signal (z-score): -0.082
[16]
  glycan array binding signal (z-score): -0.121
Neu5Ac(a2-3)GalNAc
  glycan array binding signal (z-score): -0.415
[17]
  glycan array binding signal (z-score): -0.165
[18]
  glycan array binding signal (z-score): -0.526
[19]
  glycan array binding signal (z-score): -0.212
[20]
  glycan array binding signal (z-score): 1.01
[21]
  glycan array binding signal (z-score): -0.18
Neu5Ac(a2-6)Gal
  glycan array binding signal (z-score): -0.343
[22]
  glycan array binding signal (z-score): -0.501
Neu5Ac(a2-6)Gal(b1-4)Glc
  glycan array binding signal (z-score): -0.229
[23]
  glycan array binding signal (z-score): 0.016
[24]
  glycan array binding signal (z-score): -0.497
[25]
  glycan array binding signal (z-score): 0.163
[26]
  glycan array binding signal (z-score): 0.001
[27]
  glycan array binding signal (z-score): 0.186
[28]
  glycan array binding signal (z-score): -0.559
[29]
  glycan array binding signal (z-score): 0.075
[30]
  glycan array binding signal (z-score): -0.494
[31]
  glycan array binding signal (z-score): -0.467
[32]
  glycan array binding signal (z-score): 1.73
[33]
  glycan array binding signal (z-score): -0.086
[34]
  glycan array binding signal (z-score): -0.327
[35]
  glycan array binding signal (z-score): -0.527
[36]
  glycan array binding signal (z-score): -0.487
[37]
  glycan array binding signal (z-score): 0.873
[38]
  glycan array binding signal (z-score): -0.243
[39]
  glycan array binding signal (z-score): -0.729
[40]
  glycan array binding signal (z-score): -0.632
[41]
  glycan array binding signal (z-score): -0.288
[42]
  glycan array binding signal (z-score): -0.499
